Experimental findings from article doi:10.1101/258228 are described below.

Sequences of proteins named here, by UniProt entry; tags and fusion partners are left off. A change or cut given only in a name is not applied to a line headed by its entry.
UniProt Q8GUI6: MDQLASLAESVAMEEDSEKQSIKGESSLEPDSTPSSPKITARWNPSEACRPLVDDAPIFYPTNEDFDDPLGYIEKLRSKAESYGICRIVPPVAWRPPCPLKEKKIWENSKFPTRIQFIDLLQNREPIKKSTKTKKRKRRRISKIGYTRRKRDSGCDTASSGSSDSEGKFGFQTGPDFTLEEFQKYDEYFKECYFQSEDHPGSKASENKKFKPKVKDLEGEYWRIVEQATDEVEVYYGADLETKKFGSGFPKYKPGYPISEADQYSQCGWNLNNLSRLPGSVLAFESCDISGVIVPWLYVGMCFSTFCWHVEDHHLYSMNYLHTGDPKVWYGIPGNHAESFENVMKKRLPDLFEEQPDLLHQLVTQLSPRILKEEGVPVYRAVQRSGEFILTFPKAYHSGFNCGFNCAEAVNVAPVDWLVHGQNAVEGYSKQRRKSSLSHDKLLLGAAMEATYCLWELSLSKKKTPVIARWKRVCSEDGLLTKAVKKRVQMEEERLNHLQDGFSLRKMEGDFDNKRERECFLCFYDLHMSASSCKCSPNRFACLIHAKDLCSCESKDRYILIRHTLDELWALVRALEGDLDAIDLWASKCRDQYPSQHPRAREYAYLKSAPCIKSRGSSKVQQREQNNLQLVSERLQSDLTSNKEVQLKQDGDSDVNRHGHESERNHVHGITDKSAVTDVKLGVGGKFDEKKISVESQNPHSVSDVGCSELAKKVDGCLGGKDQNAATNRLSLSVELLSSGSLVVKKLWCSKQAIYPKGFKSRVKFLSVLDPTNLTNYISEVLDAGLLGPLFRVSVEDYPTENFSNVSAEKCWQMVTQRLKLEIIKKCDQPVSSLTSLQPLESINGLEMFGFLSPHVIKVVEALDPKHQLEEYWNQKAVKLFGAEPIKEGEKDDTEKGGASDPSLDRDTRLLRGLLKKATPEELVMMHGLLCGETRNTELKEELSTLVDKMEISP
UniProt Q9LRM4: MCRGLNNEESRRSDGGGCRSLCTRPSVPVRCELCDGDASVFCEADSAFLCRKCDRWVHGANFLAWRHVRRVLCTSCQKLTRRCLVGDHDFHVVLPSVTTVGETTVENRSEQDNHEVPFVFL
UniProt Q1G3I2: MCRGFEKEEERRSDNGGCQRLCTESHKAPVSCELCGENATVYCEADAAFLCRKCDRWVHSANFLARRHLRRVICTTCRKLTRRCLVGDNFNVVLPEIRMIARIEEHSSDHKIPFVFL

Experiment in all cases: affinity purification with mass spectrometry
Experiment [1] addresses FLAG-JMJ14 (Arabidopsis thaliana) (UniProt Q8GUI6).
Experiment [2] deals with FLAG-miP1b (Arabidopsis thaliana) (UniProt Q9LRM4).
Experiment [3] deals with FLAG-miP1a (Arabidopsis thaliana) (UniProt Q1G3I2).

These are yes or no findings as the source states them, for the method shown. In cells and extracts the contact can be indirect. Here binding means that the protein was enriched with, or labelled near, the bait; the list need not be complete.

B1: NAC52 (protein, UniProt Q9SQY0 1-451)
chain: MGRESVAVVTAPPSATAPGTASVATSLAPGFRFHPTDEELVSYYLKRKVLGQPVRFDAIGEVDIYKHEPWDLAVFSRLKTRDQEWYFYSALDKKYGNGARMNRATNRGYWKATGKDREIRRDILLLGMKKTLVFHSGRAPDGLRTNWVMHEYRLVEYETEKNGNLVQDAYVLCRVFHKNNIGPPSGNRYAPFMEEEWADDEGALIPGIDVKLRLEPPPVANGNDQMDQEIQSASKSLININEPPRETAPLDIESDQQNHHENDLKPEEHNNNNNYDENEETLKREQMEEEERPPRPVCVLNKEAPLPLLQYKRRRQSESNNNSSRNTQDHCSSTTTTVDNTTTLISSSAAATNTAISALLEFSLMGISDKKEKPQQPLRPHKEPLPPQTPLASPEEKVNDLQKEIHQMSVERETFKLEMMSAEAMISILQSRIDALRQENEELKKNNANGQ
For the molecule B1, the binding entry in experiment [1] is “binds”.

B2: TOPLESS (protein, UniProt Q94AI7 1-1131)
chain: MSSLSRELVFLILQFLDEEKFKETVHKLEQESGFFFNMKYFEDEVHNGNWDEVEKYLSGFTKVDDNRYSMKIFFEIRKQKYLEALDKHDRPKAVDILVKDLKVFSTFNEELFKEITQLLTLENFRENEQLSKYGDTKSARAIMLVELKKLIEANPLFRDKLQFPTLRNSRLRTLINQSLNWQHQLCKNPRPNPDIKTLFVDHSCGPPNGARAPSPVNNPLLGGIPKAGGFPPLGAHGPFQPTASPVPTPLAGWMSSPSSVPHPAVSAGAIALGGPSIPAALKHPRTPPTNASLDYPSADSEHVSKRTRPMGISDEVNLGVNMLPMSFSGQAHGHSPAFKAPDDLPKTVARTLSQGSSPMSMDFHPIKQTLLLVGTNVGDIGLWEVGSRERLVQKTFKVWDLSKCSMPLQAALVKEPVVSVNRVIWSPDGSLFGVAYSRHIVQLYSYHGGEDMRQHLEIDAHVGGVNDISFSTPNKQLCVITCGDDKTIKVWDAATGVKRHTFEGHEAPVYSVCPHYKENIQFIFSTALDGKIKAWLYDNMGSRVDYDAPGRWCTTMAYSADGTRLFSCGTSKDGESFIVEWNESEGAVKRTYQGFHKRSLGVVQFDTTKNRYLAAGDDFSIKFWDMDAVQLLTAIDGDGGLQASPRIRFNKEGSLLAVSGNENVIKIMANSDGLRLLHTFENISSESSKPAINSIAAAAAAAATSAGHADRSANVVSIQGMNGDSRNMVDVKPVITEESNDKSKIWKLTEVSEPSQCRSLRLPENLRVAKISRLIFTNSGNAILALASNAIHLLWKWQRNERNATGKATASLPPQQWQPASGILMTNDVAETNPEEAVPCFALSKNDSYVMSASGGKISLFNMMTFKTMATFMPPPPAATFLAFHPQDNNIIAIGMDDSTIQIYNVRVDEVKSKLKGHSKRITGLAFSNVLNVLVSSGADAQLCVWNTDGWEKQRSKVLPLPQGRPNSAPSDTRVQFHQDQAHFLVVHETQLAIYETTKLECMKQWAVRESLAPITHATFSCDSQLVYASFMDATVCVFSSANLRLRCRVNPSAYLPASLSNSNVHPLVIAAHPQEPNMFAVGLSDGGVHIFEPLESEGKWGVAPPAENGSASGAPTAPSVGASASDQPQR
With B2, the binding entry in experiment [2], in experiment [1] and in experiment [3] was “binds” each time.

B3: CONSTANS-like 9 (protein, UniProt Q9SSE5 1-372)
chain: MGYMCDFCGEQRSMVYCRSDAACLCLSCDRSVHSANALSKRHSRTLVCERCNAQPATVRCVEERVSLCQNCDWSGHNNSNNNNSSSSSTSPQQHKRQTISCYSGCPSSSELASIWSFCLDLAGQSICEQELGMMNIDDDGPTDKKTCNEDKKDVLVGSSSIPETSSVPQGKSSSAKDVGMCEDDFYGNLGMDEVDMALENYEELFGTAFNPSEELFGHGGIDSLFHKHQTAPEGGNSVQPAGSNDSFMSSKTEPIICFASKPAHSNISFSGVTGESSAGDFQECGASSSIQLSGEPPWYPPTLQDNNACSHSVTRNNAVMRYKEKKKARKFDKRVRYASRKARADVRRRVKGRFVKAGEAYDYDPLTPTRSY
For B3, the binding result in experiment [2] and in experiment [3] was “binds” in each case.

B4: CONSTANS-like 4 (COL4) protein (protein, UniProt Q940T9 1-362)
chain: MASKLCDSCKSATAALYCRPDAAFLCLSCDSKVHAANKLASRHARVWMCEVCEQAPAHVTCKADAAALCVTCDRDIHSANPLARRHERVPVTPFYDSVSSDGSVKHTAVNFLDDCYFSDIDGNGSREEEEEEAASWLLLPNPKTTTTATAGIVAVTSAEEVPGDSPEMNTGQQYLFSDPDPYLDLDYGNVDPKVESLEQNSSGTDGVVPVENRTVRIPTVNENCFEMDFTGGSKGFTYGGGYNCISHSVSSSSMEVGVVPDGGSVADVSYPYGGPATSGADPGTQRAVPLTSAEREARVMRYREKRKNRKFEKTIRYASRKAYAEMRPRIKGRFAKRTDTNESNDVVGHGGIFSGFGLVPTF
With B4, the binding result in experiment [2] and in experiment [3] was “binds” each time.

B5: NAC50 (protein, UniProt Q9SQX9 1-447)
chain: MGRESLAVVSSPPSATAPSTAVSATSLAPGFRFHPTDEELVSYYLKRKVLGKPVRFDAIGEVDIYKHEPWDLAVFSKLKTRDQEWYFFSALDKKYGNGARMNRATNKGYWKATGKDREIRRDIQLLGMKKTLVFHSGRAPDGLRTNWVMHEYRLVEYETETNGSLLQDAYVLCRVFHKNNIGPPSGNRYAPFMEEEWADGGGALIPGIDVRVRVEALPQANGNNQMDQEMHSASKDLININELPRDATPMDIEPNQQNHHESAFKPQESNNHSGYEEDEDTLKREHAEEDERPPSLCILNKEAPLPLLQYKRRRQNESNNNSSRNTQDHCSSTITTVDNTTTLISSSAAAATNTAISALLEFSLMGISDKKENQQKEETSPPSPIASPEEKVNDLQKEVHQMSVERETFKLEMMSAEAMISILQSRIDALRQENEELKKKNASGQAS
On to B5, for which the binding entry in experiment [1] is reported as “binds”.
